Results taken from article PMC8081163.
Results are given in words; binding and its absence hold for the method and conditions named. Binding seen in cells or lysates may run through a third protein. For part of these data: Binding calls can cover weak binding; strength is not graded here.

The chains behind the UniProt entries cited, without tags or fusion partners. Where a name states a change or a piece, a line headed by the entry shows the natural chain unless it says otherwise.
UniProt Q61656: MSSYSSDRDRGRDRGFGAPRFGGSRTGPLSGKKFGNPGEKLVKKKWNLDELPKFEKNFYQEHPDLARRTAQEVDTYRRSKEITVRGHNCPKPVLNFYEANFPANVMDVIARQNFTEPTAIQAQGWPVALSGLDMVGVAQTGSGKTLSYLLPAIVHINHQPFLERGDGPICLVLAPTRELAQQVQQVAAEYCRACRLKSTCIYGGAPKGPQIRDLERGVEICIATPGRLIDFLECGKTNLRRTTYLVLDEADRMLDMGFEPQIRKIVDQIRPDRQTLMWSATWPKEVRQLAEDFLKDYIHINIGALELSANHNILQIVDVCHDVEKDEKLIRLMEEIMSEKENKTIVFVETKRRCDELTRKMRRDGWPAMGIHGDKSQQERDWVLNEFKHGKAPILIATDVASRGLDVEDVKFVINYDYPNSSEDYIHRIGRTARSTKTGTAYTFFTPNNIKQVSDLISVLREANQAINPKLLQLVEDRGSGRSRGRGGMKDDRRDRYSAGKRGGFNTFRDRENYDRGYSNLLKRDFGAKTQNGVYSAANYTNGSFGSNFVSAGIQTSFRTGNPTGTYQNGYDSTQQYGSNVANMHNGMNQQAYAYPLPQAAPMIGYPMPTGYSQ
UniProt Q8C3P7: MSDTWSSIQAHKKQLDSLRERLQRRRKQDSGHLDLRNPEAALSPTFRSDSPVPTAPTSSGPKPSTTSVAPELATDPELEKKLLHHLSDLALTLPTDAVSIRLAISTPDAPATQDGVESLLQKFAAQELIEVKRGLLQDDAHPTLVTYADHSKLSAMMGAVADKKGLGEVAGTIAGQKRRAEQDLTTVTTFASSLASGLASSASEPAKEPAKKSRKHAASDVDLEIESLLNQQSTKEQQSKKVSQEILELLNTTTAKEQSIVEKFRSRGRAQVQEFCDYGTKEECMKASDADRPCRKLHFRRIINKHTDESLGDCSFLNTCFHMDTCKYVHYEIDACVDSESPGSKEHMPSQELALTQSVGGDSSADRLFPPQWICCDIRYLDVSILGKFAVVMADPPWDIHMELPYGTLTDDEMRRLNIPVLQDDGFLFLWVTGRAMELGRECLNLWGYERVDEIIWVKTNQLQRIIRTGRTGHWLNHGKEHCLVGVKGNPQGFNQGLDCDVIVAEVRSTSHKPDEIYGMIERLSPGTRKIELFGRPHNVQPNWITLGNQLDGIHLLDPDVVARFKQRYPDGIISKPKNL

How the values were obtained:
Assay in all cases: co-IP; HEK293T co-transfected with Myc-DDX5 (or mutants) and Flag-METTL3 (or mutants), 24 h, NP40 lysis; IP with mouse anti-Flag antibody (METTL3 mutants, Fig 2D) or anti-Myc antibody (DDX5 mutants, Fig 2G) and protein G/A magnetic beads; western blot
[1] = biological target: Myc-DDX5 with deletion of the DEXDc domain (mouse) (UniProt Q61656)
[2] = biological target: Myc-DDX5 with deletion of the HELICc domain (mouse) (UniProt Q61656)
[3] = biological target: Myc-DDX5 with deletion of the P68HR domain (mouse) (UniProt Q61656)

## Flag-METTL3 (mouse) (from UniProt Q8C3P7 1-580)
[1]
  binding: binds
[2]
  binding: binds
[3]
  binding: no binding
